Measurements: PubChem BioAssay AID504594 (Broad Institute, 2011)
Values joined by “and” are separate entries in the source; they are usually repeats but may differ in a detail not shown here. Equal entries are not always repeated. Screen size: about 2,000 compounds; fewer than 10 were called active.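 Rule for the calls: active = growth inhibition of at least 75% in every replicate, which also brings the mean inhibition to 75% or more; inconclusive = mean inhibition 75% or more but some replicate under 75%; inactive = the rest.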 Some of the results follow.

test: reduced viability of yeast carrying PfHsp90 – S. cerevisiae, BacTiter-Glo luminescence, antimalarial PfHsp90 inhibitor project, primary screen (AID 504594);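 note: 0% = DMSO neutral control wells and 100% = 20 µM radicicol control wells; higher value means stronger growth inhibition because the sign is flipped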; conditions: S. cerevisiae expressing PfHsp90, BacTiter-Glo growth, 48 h; at 9.4 µM; active compounds read high

SMILES | growth inhibition
Nc1ccn([C@@H]2O[C@H](CO)[C@@H](O)[C@@H]2O)c(=O)n1 | inactive: -3.61%
COc1cc2c(cc1OC)-c1cc(NC3CCCCCC3)nc(=O)n1CC2 | inactive: -3.84%
NC(N)=N/N=C/c1cccc(Cl)c1Cl | inactive: -4.6%
COc1ccc(CCN=CC2=C(O)CC(C)(C)CC2=O)cc1 | inactive: 1.7%
C=CCNC(=O)c1ccc(-c2cccc([N+](=O)[O-])c2)o1 | inactive: 0.359%
CC(C)CCC1(CCNC(C)c2cccs2)CCOC(C)(C)C1 (centres undefined) | inactive: 1.5%
COc1ccc(CC(=O)c2c(O)cc(O)cc2O)cc1OC | inactive: 9.31%
C[C@@H]1C[C@H]2[C@@H]3C[C@H](F)C4=CC(=O)C=C[C@]4(C)[C@@]3(F)[C@@H](O)C[C@]2(C)[C@@]1(O)C(=O)COC(=O)C(C)(C)C | inactive: 16.7%
O=C1C(=O)N2C(=C1C(=O)N1CCCCCC1)c1ccccc1CC21CCCC1 | inactive: -4.5%
O=C(CN1C(=O)c2ccccc2C1=O)Nc1cccc([N+](=O)[O-])c1 | inactive: 8.15%
O=c1[nH]cnc2c1ncn2[C@@H]1O[C@H](CO)[C@@H](O)[C@H]1O | inactive: -4.94%
CCc1nc2ccccc2n1Cc1ccc(OC)c(OC)c1 | inactive: 2.55%
O=C(O)C[C@@H](O)C(=O)O | inactive: -8.31%
O=c1ccc2ccccc2o1 | inactive: -13.2%
CC(=O)Oc1ccc2occ(/C=N/c3cc(=O)[nH]c(=S)[nH]3)c(=O)c2c1 | inactive: -8.02%
CC1(C)CC(CNCCC(c2ccc(F)cc2)c2ccco2)CCO1 (centres undefined) | inactive: -5.05%
CN(C)CCCN1c2ccccc2Sc2ccc(Cl)cc21 | inactive: 7.05% and inactive: 9.61%
COc1ccc(C(=O)Nc2cccc3cccnc23)cc1OC | inactive: 6.56%
Cc1nonc1CN(C)C(=O)c1ccc(OC2CCN(Cc3ccccn3)CC2)cc1 | inactive: 0.816%
COc1ccc(-c2onc(C)c2-c2ccc(C(=O)OC(C)C)o2)c(O)c1 | inactive: 7.86%
O=C(Oc1cccccc1=O)c1ccccc1 | inactive: 11%
O=C(O)CCCCCN1C(=O)C(=O)/C(=C(/O)c2ccccc2)C1c1ccccc1 (centres undefined) | inactive: -4.55%
Cn1c2c(c(=O)[nH]c1=O)C(c1ccc(O)cc1)C1=C(N2)c2ccccc2C1=O (centres undefined) | inactive: 1.24%
CN(C)CCOCCOc1ccc(Cl)cc1Br | inactive: 2.79%
O=c1c2ccccc2nc2n1-c1ccccc1CCC2 | inactive: -1.51%

SMILES | growth inhibition
CCc1ccc(CN(C)Cc2nc(Cc3ccccc3)no2)nc1 | inactive: -0.638%
CC(C)(C)c1ccc(C(O)CCCN2CCC(C(O)(c3ccccc3)c3ccccc3)CC2)cc1 (centres undefined) | inactive: 6.4%
CC(=O)Nc1nc(CCC(C)C)cc2c1c(=O)oc1ccccc12 | inactive: -1.94%
CC(COc1ccccc1)NC(C)C(O)c1ccc(O)cc1 (centres undefined) | inactive: 2.68%
COC1=C(N)C(=O)c2nc(-c3nc(C(=O)O)c(C)c(-c4ccc(OC)c(OC)c4O)c3N)ccc2C1=O | inactive: -7.96%
O=C(OCCN1CCOCC1)c1cccs1 | inactive: -2.82%
O=c1nc2sc3ccccc3n2c(=O)n1-c1ccc(Cl)cc1 | inactive: 7.78%
CCCC(CCC)C(=O)OC1C[C@H]2CC[C@@H](C1)[N+]2(C)C (some centres undefined) | inactive: 2.61%
c1ccc(Cn2ncc3c(Nc4ccccc4)ncnc32)cc1 | inactive: -4.47%
CSc1ccc2c(c1)N(CCC1CCCCN1C)c1ccccc1S2 (centres undefined) | inactive: -4.04%
Cc1cc(-c2nn(-c3ccccc3F)cc2CN2CCCC(O)C2)c(C)s1 (centres undefined) | inactive: 5.63%
Cc1cc(-c2ccccc2)nnc1NCCN1CCOCC1 | inactive: -0.565%
OCCN(Cc1nc(-c2ccc3c(c2)OCO3)no1)Cc1cccs1 | inactive: -10%
COc1cc2c(cc1OC)CN(C(=O)c1ccc(S(=O)(=O)N(C)c3ccccc3)cc1)CC2 | inactive: -4.77%
CCOc1ccccc1C(=O)NCCC(=O)O | inactive: -5.17%
OC[C@H]1O[C@@H](n2cnc3c(Nc4ccccc4)ncnc32)[C@H](O)[C@@H]1O | inactive: -0.239%
C=CCNC(=S)N1CCc2c([nH]c3ccccc23)C1C (centres undefined) | inactive: -5.39%
COc1ccc(C=O)c(OC)c1 | inactive: 9.26%
Cc1ccsc1/C=C/C1=NCCCN1C | inactive: 1.84%
Fc1cc(F)cc(NC(=S)NCCCN2CCOCC2)c1 | inactive: 10.9%
CCCCC[C@H](O)/C=C/[C@@H]1[C@@H](C/C=C\CCCC(=O)OC)[C@@H](O)C[C@H]1O | inactive: -5.41%
Cn1nc(-c2ccccn2)nc2c(=O)n(C)c(=O)nc1-2 | inactive: -12.4%
CCN(CC)CCNc1ccc(CO)c2sc3ccccc3c(=O)c12 | inactive: -10.1%
Cc1ccc(O)c(CCc2ccccc2)n1 | inactive: -2.21%

Look-ups from above.
C=CCNC(=S)N1CCc2c([nH]c3ccccc23)C1C (centres undefined) | growth inhibition: inactive: -5.39%
CC(=O)Nc1nc(CCC(C)C)cc2c1c(=O)oc1ccccc12 | growth inhibition: inactive: -1.94%
Cc1ccc(O)c(CCc2ccccc2)n1 | growth inhibition: inactive: -2.21%
